Reference: the supplement of paper PMC7666118
The other results are listed elsewhere or left out.

By UniProt entry, the sequences of proteins in these tests, tags left out. Where a name states a change or a piece, a line headed by the entry shows the natural chain unless it says otherwise.
UniProt Q9H6V9: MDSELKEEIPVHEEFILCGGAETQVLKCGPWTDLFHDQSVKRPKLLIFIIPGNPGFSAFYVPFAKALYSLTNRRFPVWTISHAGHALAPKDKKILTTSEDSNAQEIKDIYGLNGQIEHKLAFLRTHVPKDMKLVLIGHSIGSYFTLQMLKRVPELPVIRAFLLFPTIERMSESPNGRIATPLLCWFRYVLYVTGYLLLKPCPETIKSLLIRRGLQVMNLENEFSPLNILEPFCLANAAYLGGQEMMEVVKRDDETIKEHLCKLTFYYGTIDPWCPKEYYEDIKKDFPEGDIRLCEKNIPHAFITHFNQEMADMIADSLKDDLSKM
UniProt Q8WUQ7: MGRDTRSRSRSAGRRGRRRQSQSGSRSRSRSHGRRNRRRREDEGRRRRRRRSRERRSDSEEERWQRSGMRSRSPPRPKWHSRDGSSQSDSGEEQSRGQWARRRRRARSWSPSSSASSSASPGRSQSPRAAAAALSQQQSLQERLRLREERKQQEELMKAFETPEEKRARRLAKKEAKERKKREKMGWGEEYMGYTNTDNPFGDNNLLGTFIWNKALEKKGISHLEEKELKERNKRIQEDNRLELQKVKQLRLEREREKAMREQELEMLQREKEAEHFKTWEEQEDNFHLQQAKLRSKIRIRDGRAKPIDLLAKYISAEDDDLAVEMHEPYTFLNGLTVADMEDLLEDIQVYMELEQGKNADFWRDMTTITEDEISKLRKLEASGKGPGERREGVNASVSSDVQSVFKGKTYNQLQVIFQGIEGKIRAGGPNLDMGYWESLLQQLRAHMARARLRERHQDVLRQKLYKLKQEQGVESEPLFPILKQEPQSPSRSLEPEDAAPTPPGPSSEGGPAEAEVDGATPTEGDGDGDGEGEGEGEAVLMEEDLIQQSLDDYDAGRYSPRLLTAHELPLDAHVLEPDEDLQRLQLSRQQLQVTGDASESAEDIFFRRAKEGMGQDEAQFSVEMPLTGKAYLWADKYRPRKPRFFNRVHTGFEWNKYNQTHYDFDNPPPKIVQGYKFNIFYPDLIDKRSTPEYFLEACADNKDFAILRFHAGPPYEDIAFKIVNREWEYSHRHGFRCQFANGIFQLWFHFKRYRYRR
UniProt Q1ED39: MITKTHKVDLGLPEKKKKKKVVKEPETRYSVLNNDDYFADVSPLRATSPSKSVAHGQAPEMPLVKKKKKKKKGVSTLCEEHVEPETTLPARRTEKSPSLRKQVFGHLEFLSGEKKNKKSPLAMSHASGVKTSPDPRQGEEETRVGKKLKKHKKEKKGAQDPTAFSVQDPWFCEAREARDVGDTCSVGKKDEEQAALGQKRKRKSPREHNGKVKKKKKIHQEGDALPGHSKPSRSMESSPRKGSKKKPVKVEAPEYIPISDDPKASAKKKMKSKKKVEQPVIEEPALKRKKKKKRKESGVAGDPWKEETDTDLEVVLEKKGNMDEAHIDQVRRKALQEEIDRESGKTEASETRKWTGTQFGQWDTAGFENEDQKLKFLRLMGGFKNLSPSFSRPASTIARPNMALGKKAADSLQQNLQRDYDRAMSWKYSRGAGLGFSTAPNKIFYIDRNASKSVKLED
UniProt Q9BUH6, whole entry: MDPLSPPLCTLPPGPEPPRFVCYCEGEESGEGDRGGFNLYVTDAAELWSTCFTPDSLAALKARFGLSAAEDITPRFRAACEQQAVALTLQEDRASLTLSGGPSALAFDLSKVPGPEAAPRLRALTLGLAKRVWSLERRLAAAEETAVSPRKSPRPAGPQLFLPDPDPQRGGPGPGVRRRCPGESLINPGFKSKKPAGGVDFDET
UniProt Q8IYB1: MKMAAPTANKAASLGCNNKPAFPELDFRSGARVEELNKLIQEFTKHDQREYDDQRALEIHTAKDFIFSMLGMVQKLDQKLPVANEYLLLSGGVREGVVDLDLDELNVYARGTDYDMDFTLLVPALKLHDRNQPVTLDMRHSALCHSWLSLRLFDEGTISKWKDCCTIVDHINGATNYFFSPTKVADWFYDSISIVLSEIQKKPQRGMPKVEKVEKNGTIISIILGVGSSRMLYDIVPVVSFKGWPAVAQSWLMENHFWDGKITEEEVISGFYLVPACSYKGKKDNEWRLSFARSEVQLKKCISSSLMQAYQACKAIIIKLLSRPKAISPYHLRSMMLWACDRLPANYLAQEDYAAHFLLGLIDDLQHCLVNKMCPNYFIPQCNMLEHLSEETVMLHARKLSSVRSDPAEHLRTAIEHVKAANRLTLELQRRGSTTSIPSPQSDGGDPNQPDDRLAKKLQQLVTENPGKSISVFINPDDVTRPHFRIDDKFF
UniProt Q7L5D6: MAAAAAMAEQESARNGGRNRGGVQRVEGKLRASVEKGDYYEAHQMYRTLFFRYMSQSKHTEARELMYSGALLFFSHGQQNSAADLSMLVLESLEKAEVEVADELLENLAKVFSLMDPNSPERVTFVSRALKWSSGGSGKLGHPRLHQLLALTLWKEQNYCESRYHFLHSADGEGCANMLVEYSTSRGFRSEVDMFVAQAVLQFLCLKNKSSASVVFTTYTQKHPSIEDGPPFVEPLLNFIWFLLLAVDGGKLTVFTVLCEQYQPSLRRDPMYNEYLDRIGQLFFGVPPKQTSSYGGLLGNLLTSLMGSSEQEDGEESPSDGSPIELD
UniProt Q9UKR5: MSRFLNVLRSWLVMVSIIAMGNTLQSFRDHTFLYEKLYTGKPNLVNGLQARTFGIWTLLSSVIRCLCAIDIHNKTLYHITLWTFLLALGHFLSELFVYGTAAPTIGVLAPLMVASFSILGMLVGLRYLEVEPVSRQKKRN
UniProt Q96GQ5: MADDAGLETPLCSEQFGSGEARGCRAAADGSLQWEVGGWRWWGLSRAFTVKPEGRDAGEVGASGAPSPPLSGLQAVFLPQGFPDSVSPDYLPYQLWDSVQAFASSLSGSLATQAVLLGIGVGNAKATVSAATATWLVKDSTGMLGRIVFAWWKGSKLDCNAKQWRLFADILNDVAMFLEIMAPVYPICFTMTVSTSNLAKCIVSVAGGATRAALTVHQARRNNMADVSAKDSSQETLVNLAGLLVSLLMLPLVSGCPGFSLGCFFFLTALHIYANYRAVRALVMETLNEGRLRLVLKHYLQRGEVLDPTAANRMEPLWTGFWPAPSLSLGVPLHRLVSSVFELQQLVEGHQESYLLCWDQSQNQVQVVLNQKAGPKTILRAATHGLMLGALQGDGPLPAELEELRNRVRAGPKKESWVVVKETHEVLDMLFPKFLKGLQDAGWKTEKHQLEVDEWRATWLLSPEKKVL
UniProt Q9GZY4: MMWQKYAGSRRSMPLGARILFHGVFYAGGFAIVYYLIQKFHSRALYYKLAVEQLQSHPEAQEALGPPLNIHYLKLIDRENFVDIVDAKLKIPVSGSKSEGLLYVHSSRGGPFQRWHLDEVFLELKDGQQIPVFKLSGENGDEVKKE
UniProt O94763, whole entry: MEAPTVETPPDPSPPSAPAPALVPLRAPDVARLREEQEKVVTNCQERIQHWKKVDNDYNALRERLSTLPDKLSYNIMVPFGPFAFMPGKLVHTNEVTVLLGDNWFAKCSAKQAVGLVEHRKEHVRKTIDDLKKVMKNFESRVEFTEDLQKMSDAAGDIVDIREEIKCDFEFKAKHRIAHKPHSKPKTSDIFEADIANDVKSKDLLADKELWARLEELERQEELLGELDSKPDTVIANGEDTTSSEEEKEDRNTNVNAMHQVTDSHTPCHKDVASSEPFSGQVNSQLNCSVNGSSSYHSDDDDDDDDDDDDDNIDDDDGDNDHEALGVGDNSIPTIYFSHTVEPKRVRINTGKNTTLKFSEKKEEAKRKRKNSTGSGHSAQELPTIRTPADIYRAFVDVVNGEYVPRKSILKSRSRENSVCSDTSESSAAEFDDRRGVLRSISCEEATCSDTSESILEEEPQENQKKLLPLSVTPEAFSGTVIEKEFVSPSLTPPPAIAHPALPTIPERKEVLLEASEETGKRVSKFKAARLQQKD
UniProt Q0VG06: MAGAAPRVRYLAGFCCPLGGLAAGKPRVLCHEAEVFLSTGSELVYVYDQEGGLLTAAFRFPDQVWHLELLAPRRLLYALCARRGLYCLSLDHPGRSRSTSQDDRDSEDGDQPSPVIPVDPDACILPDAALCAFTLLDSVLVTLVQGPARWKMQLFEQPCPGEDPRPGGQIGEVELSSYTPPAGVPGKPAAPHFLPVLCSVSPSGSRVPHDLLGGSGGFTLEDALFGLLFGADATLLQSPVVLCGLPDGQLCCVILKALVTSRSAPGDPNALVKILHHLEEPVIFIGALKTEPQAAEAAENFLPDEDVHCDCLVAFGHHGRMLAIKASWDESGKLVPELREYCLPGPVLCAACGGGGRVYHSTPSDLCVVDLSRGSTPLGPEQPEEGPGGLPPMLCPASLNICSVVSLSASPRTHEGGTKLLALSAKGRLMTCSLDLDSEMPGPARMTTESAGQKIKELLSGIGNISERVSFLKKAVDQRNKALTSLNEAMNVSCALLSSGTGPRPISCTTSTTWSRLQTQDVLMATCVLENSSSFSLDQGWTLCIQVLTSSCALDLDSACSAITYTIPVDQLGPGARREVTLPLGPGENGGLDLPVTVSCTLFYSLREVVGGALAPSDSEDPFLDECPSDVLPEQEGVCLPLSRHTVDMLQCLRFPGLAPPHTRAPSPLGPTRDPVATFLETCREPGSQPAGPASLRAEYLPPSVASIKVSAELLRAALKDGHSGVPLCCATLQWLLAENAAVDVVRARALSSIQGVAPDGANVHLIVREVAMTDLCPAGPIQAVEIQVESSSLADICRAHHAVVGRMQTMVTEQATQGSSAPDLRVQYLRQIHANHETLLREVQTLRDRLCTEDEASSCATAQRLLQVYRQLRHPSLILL
UniProt P49662: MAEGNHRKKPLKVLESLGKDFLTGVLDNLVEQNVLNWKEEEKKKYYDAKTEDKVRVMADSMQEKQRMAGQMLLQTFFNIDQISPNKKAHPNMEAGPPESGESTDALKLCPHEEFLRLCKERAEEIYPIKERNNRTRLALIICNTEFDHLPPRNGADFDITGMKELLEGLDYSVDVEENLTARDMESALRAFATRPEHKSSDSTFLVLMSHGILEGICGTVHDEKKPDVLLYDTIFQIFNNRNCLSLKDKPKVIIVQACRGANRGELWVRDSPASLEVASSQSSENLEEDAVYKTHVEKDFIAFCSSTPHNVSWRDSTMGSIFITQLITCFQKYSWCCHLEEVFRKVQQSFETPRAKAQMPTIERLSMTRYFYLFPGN
UniProt Q9BVV7: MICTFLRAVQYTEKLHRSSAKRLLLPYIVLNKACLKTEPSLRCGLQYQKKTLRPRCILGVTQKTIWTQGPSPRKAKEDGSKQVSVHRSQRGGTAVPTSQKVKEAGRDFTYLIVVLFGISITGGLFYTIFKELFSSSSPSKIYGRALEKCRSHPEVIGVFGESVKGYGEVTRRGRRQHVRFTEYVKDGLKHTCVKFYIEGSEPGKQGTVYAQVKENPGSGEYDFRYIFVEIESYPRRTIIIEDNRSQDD
UniProt Q9Y2V0: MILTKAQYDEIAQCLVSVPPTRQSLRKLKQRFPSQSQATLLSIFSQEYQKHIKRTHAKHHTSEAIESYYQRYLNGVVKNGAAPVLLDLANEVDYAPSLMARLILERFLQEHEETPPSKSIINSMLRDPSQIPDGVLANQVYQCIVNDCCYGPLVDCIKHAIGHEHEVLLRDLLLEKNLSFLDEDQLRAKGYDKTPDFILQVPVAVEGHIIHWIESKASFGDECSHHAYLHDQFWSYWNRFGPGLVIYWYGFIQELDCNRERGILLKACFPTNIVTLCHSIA
UniProt Q9NVR5: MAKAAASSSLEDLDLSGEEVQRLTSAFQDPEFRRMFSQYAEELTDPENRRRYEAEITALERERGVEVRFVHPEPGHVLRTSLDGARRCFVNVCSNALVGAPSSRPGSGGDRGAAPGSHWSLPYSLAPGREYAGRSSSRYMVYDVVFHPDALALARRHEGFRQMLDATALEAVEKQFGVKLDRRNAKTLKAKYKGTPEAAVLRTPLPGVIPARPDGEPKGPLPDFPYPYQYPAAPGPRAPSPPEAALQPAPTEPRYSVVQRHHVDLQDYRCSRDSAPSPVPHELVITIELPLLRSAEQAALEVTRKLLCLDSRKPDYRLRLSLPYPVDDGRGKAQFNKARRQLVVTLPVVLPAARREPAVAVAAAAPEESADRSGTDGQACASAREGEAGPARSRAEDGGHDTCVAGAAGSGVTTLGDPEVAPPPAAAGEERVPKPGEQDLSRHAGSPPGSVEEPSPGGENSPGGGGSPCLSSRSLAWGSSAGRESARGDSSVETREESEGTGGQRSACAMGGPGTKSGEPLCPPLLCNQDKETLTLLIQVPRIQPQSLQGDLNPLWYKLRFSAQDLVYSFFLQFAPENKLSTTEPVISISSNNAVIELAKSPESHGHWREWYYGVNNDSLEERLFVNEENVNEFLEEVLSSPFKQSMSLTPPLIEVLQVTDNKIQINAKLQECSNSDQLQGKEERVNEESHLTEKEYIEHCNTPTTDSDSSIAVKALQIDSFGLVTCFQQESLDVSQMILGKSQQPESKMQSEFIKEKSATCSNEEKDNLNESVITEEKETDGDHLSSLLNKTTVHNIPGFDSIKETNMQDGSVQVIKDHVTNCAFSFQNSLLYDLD
UniProt Q96KF7: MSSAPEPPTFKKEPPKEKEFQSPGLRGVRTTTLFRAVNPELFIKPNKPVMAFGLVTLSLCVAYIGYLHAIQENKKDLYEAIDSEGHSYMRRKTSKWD

compound: COc1ccc(Cn2ccc3ccc(C(=O)NO)cc32)cc1; assay: dose-dependent thermal stabilisation call (2D-TPP, DLPTP, 10% FDR) (binary (1 = stabilised)); higher = stabilised by the compound; details: system: HL-60 intact cells; concentration range 0.04-10 µM

Row | Target | dose-dependent thermal stabilisation call
1 | C2ORF43 (UniProt Q9H6V9) | inactive: 0
2 | C19ORF29 (UniProt Q8WUQ7) | inactive: 0
3 | C14ORF142 (UniProt Q9BXV9) | inactive: 0
4 | C20ORF11 (UniProt Q9NWU2) | inactive: 0
5 | CAP1 (UniProt Q01518) | inactive: 0
6 | CBL (UniProt P22681) | inactive: 0
7 | C16ORF88 (UniProt Q1ED39) | inactive: 0
8 | C6ORF153 (UniProt Q96EU6) | inactive: 0
9 | C9ORF142 (UniProt Q9BUH6) | inactive: 0
10 | C3ORF59 (UniProt Q8IYB1) | inactive: 0
11 | C7ORF50 (UniProt Q9BRJ6) | inactive: 0
12 | C7ORF20 (UniProt Q7L5D6) | inactive: 0
13 | C14ORF1 (UniProt Q9UKR5) | inactive: 0
14 | C9ORF97 (UniProt Q5T7W7) | inactive: 0
15 | CCAR1 (UniProt Q8IX12) | inactive: 0
16 | C16ORF58 (UniProt Q96GQ5) | inactive: 0
17 | C7ORF44 (UniProt Q9GZY4) | inactive: 0
18 | C19ORF54 (UniProt Q5BKX5) | inactive: 0
19 | CALCOCO1 (UniProt Q9P1Z2) | inactive: 0

Row | Target | dose-dependent thermal stabilisation call
20 | C19ORF2 (UniProt O94763) | inactive: 0
21 | C17ORF70 (UniProt Q0VG06) | inactive: 0
22 | C1ORF50 (UniProt Q9BV19) | inactive: 0
23 | CASP4 (UniProt P49662) | inactive: 0
24 | C5ORF22 (UniProt Q49AR2) | inactive: 0
25 | C18ORF55 (UniProt Q9BVV7) | inactive: 0
26 | C4ORF43 (UniProt Q96EY4) | inactive: 0
27 | C1GALT1C1 (UniProt Q96EU7) | inactive: 0
28 | C8ORF30A (UniProt Q9BTY7) | inactive: 0
29 | C9ORF5 (UniProt Q9H330) | inactive: 0
30 | C20ORF27 (UniProt Q9GZN8) | inactive: 0
31 | CALM1 (UniProt P0DP23) | inactive: 0
32 | CABC1 (UniProt Q8NI60) | inactive: 0
33 | C15ORF41 (UniProt Q9Y2V0) | inactive: 0
34 | C14ORF104 (UniProt Q9NVR5) | inactive: 0
35 | C6ORF162 (UniProt Q96KF7) | inactive: 0
36 | CASP6 (UniProt P55212) | inactive: 0
37 | C14ORF21 (UniProt Q86U38) | inactive: 0

3 records picked at random from those above:
Row | Target | dose-dependent thermal stabilisation call
37 | C14ORF21 (UniProt Q86U38) | inactive: 0
8 | C6ORF153 (UniProt Q96EU6) | inactive: 0
26 | C4ORF43 (UniProt Q96EY4) | inactive: 0
